Primary screen of a compound library

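Whole-cell assay for inhibitors of Mycobacterium tuberculosis growth, labelled Cornell in the record; the read-out is not stated. The concentration is filed as 10 mM, unlikely as a test dose, so the dose is not known. Higher means stronger inhibition (inferred from two other growth screens of the library). Size under these conditions: about 53,000 compounds, about 900 of them at 50% or above in at least one test.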

Values are the deposited “Percent Effect”, in %.
The controls that fix the scale are not given in the record; negative values are as filed.
This is an unselected part of the compounds tested.

* CC(NC(=O)NC1CCN(Cc2ccncc2)CC1)c1cccc(F)c1 (configuration not stated) | 6.891%
* CCCN1CCCN(S(=O)(=O)c2cnc3onc(C)c3c2)CC1 | 25.02%
* CCS(=O)(=O)CCNC1CCN(c2nc3ccc(Cl)cc3s2)CC1 | 19.14%
* CCc1ccc(C(=O)NCCCC2(C3OCCO3)CCOCC2)cc1 | -27.86%
* [H][C@]12CC[C@]([H])(CN(C(=O)N(C)C)C1)N(C(=O)c1cccnc1SC)C2 | 7.52%
* CSCc1noc(CN(C)C(C)c2nc(C)sc2C)n1 (configuration not stated) | -30.22%
* OC1CCN(c2nc(-c3ccccc3)no2)CC1 | -34.73%
* Cl.Cl.Cl.OC(CN1CCN(Cc2cccnc2)CC1)c1cccs1 (configuration not stated) | 4.324%
* CN(C)CCN(C)C1CCCN(C(=O)c2ccc(Cn3ccnc3)o2)C1 (configuration not stated) | -2.623%
* [H][C@@]12CCN(C(=O)c3ccc[nH]3)[C@]1([H])CC(=O)N2CCOC | -18.36%
* CC(C)NC(=O)CC1CC2(CCN(CC3CC3)CC2)Oc2ccccc21.O=C(O)C(F)(F)F (configuration not stated) | -30.29%
* CCC(C)NC(=O)c1nnn(-c2cccc3c2CCN(C)C3)c1C (configuration not stated) | 11.27%
* Br.Cc1ccccc1OC1CCN(CC(=O)Nc2cnn(C)c2C)CC1 | 6.171%
* Cc1nccn1C1CCCN(C(=O)c2ccc3c(c2)nc(C)n3C)C1 (configuration not stated) | -4.275%
* O=C(NCCN1CCOCC1)c1ccc(OCc2ccccc2)nc1 | -4.666%
* Cc1ccc2c(c1)C(=O)NCC1(CCN(C(=O)c3csc(C)c3)CC1)O2 | -4.239%
* CC(=O)c1sc2nc3c(c(C(F)(F)F)c2c1N)CN(C(C)=O)CC3 | 21.48%
* COc1cc(NCCNC(=O)c2ccc3[nH]ccc3c2)cc(OC)c1 | -10.62%
* CC(C)c1nc(CNc2ccc(N3CCC(CO)CC3)cn2)cs1 | 20.33%
* Cc1cc(C)cc(OCCC(=O)N2CCOCC2c2ncon2)c1 (configuration not stated) | 15.04%
* Cc1nccc(-c2cccc(NCC(=O)N3CCNC3=O)c2)n1 | 16.93%
* CCCNC(=O)c1nn(CC)cc1NC(=O)c1cn(C)nc1C | 34.88%
* Cc1cc(C2CCCN(S(=O)(=O)c3cn[nH]c3)C2)ccn1 (configuration not stated) | -8.829%
* [H][C@]12CC[C@]([H])(CN(C3CCOCC3)C1)N(Cc1cnc(SCC)nc1)C2 | 17.84%
* C=C(C)COc1ccccc1NC(=O)N1CCCCC1CO (configuration not stated) | 3.355%
* [H][C@]12CN(Cc3nc(C)c[nH]3)CC[C@@]1(O)CCN(C(C)=O)C2 | -41.48%
* CO[C@H]1CCN(C(=O)c2cc(C)on2)[C@H]1Cc1ccncc1 | 9.94%
* COCCNS(=O)(=O)c1ccc(Cl)c(C(=O)N(C)Cc2ccsc2)c1 | 20.23%
* Cl.Cl.O=C(NCc1cncc2c1CCN(Cc1ccoc1)C2)C1CC1 | 15.44%
* CCc1ccc2c(c1)C(CCNC(=O)c1sccc1C)C(=O)N2 (configuration not stated) | 36.98%
* Cn1cnc2c1CCN(Cc1csc(Cc3ccccc3)n1)C2 | -22.67%
* Cc1noc(C)c1CN1CCc2ncnc(-c3ccncc3)c2CC1.O=C(O)C(F)(F)F.O=C(O)C(F)(F)F | -10.35%
* COCCOc1cc(C(=O)N2CC(C)c3ccccc32)ccn1 (configuration not stated) | 28.2%
* CN(Cc1nc(C(F)(F)F)cs1)C(=O)CCc1cccnc1 | 13.63%
* CS(=O)(=O)NC1CCN(C(=O)CCn2cccn2)CC1 | -13.25%
* O=C(CCc1ccc(Br)cc1)NCc1nnc[nH]1 | 41.38%
* CCNC(=O)N(Cc1cccc(OC)c1)C1CCC(O)CC1 (configuration not stated) | 21.75%
* CC(=O)Nc1nc(CS(=O)(=O)Cc2ccccc2)cs1 | 12.48%
* CC(C)n1[nH]c(=O)c2c1NC(=O)CC2c1ccncc1 (configuration not stated) | -33.07%
* CC(CC(=O)Nc1ncn(CC(=O)NCc2ccccc2)n1)C1CC1 (configuration not stated) | -15.48%
* O=C(O)C(F)(F)F.[H][C@@]12CN(Cc3ccoc3)CCO[C@]1([H])CN(C(=O)COC1CCCC1)C2 | 22.93%
* COc1ccc(-n2cnnc2SCC(C)(C)O)cn1 | 7.118%
* Cn1c(=O)[nH]c(=O)c2c1nc1n2CC(c2ccc(Br)cc2)O1 (configuration not stated) | 3.607%
* Cc1cccc(NC(=O)[C@@H]2CCCN2Cc2nnc(C(C)C)n2C)n1 | 20.79%
* O=C(CCN1CCOC(C(F)(F)F)C1)NCc1cccc(Cl)c1 (configuration not stated) | 10.01%
* CN(Cc1cc2n(n1)CCCNC2)Cc1ccno1 | 20.98%
* Cc1ccc(CN[C@@H]2CO[C@H](CNS(=O)(=O)c3ccccc3)[C@H]2O)cc1 | -21.12%
* CC(NC(=O)C1CCN(S(N)(=O)=O)CC1)c1cccc(OC(F)F)c1 (configuration not stated) | 5.388%

4 of the entries, repeated:

structure,effect
CCCNC(=O)c1nn(CC)cc1NC(=O)c1cn(C)nc1C,34.88
CC(=O)c1sc2nc3c(c(C(F)(F)F)c2c1N)CN(C(C)=O)CC3,21.48
CCC(C)NC(=O)c1nnn(-c2cccc3c2CCN(C)C3)c1C (configuration not stated),11.27
CCNC(=O)N(Cc1cccc(OC)c1)C1CCC(O)CC1 (configuration not stated),21.75

From ChEMBL document CHEMBL3988442, “University of Dundee, Small-Polar-MMV Screening Library” (2021).